The source of these data is doi:10.1101/2023.12.15.571801.

Chains of the proteins cited; added tags and fusions are not shown.
UniProt P16370: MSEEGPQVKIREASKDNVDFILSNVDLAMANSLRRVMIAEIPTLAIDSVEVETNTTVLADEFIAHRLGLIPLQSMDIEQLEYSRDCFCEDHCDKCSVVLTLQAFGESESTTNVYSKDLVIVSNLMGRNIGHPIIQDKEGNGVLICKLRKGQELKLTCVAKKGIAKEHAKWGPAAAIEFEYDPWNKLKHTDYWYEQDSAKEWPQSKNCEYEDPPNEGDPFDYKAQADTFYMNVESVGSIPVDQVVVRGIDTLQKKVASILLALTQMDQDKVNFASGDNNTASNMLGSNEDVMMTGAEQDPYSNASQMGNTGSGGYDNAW

The target of test [1] is Rpb3 (S. cerevisiae (endogenous in yeast extract)) (UniProt P16370). Kind of test: co-IP.
The target in test [2] is T1, Rpb4 (endogenous) (S. cerevisiae (endogenous in yeast extract)) (UniProt P20433).
T1 sequence: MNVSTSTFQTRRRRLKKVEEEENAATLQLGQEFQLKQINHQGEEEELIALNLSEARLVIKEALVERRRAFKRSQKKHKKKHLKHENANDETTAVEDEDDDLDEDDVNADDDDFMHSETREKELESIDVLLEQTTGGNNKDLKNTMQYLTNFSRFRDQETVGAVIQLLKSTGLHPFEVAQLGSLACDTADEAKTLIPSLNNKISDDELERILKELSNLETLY
The test can be described thus: co-IP.

Results are given in words; binding and its absence hold for the method and conditions named. In cells and extracts the contact can be indirect. Some entries that bind do so weakly or less than the wild type.

B1: Hrr25-TAP (enzyme, UniProt P29295 1-494)
chain: MDLRVGRKFRIGRKIGSGSFGDIYHGTNLISGEEVAIKLESIRSRHPQLDYESRVYRYLSGGVGIPFIRWFGREGEYNAMVIDLLGPSLEDLFNYCHRRFSFKTVIMLALQMFCRIQYIHGRSFIHRDIKPDNFLMGVGRRGSTVHVIDFGLSKKYRDFNTHRHIPYRENKSLTGTARYASVNTHLGIEQSRRDDLESLGYVLIYFCKGSLPWQGLKATTKKQKYDRIMEKKLNVSVETLCSGLPLEFQEYMAYCKNLKFDEKPDYLFLARLFKDLSIKLEYHNDHLFDWTMLRYTKAMVEKQRDLLIEKGDLNANSNAASASNSTDNKSETFNKIKLLAMKKFPTHFHYYKNEDKHNPSPEEIKQQTILNNNAASSLPEELLNALDKGMENLRQQQPQQQVQSSQPQPQPQQLQQQPNGQRPNYYPEPLLQQQQRDSQEQQQQVPMATTRATQYPPQINSNNFNTNQASVPPQMRSNPQQPPQDKPAGQSIWL
In the case of B1, the binding result in test [1] and in test [2] was “binds” in each case.

B2: Bur1 (enzyme, UniProt P23293 1-657)
chain: MSDNGSPAVLPKTEFNKYKIGKVKSTPAIQRDAKTNLTYIKLRKRSSEKVYGCTVFQNHYREDEKLGQGTFGEVYKGIHLETQRQVAMKKIIVSVEKDLFPITAQREITILKRLNHKNIIKLIEMVYDHSPDITNAASSNLHKSFYMILPYMVADLSGVLHNPRINLEMCDIKNMMLQILEGLNYIHCAKFMHRDIKTANILIDHNGVLKLADFGLARLYYGCPPNLKYPGGAGSGAKYTSVVVTRWYRAPELVLGDKQYTTAVDIWGVGCVFAEFFEKKPILQGKTDIDQGHVIFKLLGTPTEEDWAVARYLPGAELTTTNYKPTLRERFGKYLSETGLDFLGQLLALDPYKRLTAMSAKHHPWFKEDPLPSEKITLPTEESHEADIKRYKEEMHQSLSQRVPTAPRGHIVEKGESPVVKNLGAIPRGPKKDDASFLPPSKNVLAKPPPSKIRELHQNPRPYHVNSGYAKTAIPPPAAPAGVNRYGPNNSSRNNRFSGNSTAPNNSRNPVNRFHPETNVSSKYNKVPLPLGPQSRYQGNSNESRYKNSPNDSRYHNPRYVNKPETNFNRQPQKYSRQESNAPINKNYNPSNGSRNMAGDHHQGSRPSHPQFPISPSQGQHQLTSKPIEKKNGSFKDERAKPDESKEFQNSDIADLY
For the molecule B2, the binding result in test [2] is “binds”.
